The target of assay [1] is CaM of the CaM matrix. Description: affinity purification with mass spectrometry.
The target in assay [2] is CaM of the CaM matrix. Description: condition: only with an excess of the Ca2+ chelator EGTA.

No constants are given. Whether binding was seen depends on the method and setting. In cells and extracts the contact can be indirect. A yes stands for co-enrichment or nearness to the bait. Other partners may have been found. For some assays here: A no says only that the protein was not detected with the bait.

B1: NADKc-1 (NAD+ kinase CaM-1), product of the At1g04280 gene, endogenous in A. thaliana seedlings (enzyme, UniProt Q0WUY1 1-534)
chain: MVKPLGEGTRDVSNVGCKSVDLLLASLGGLAAAVAAAYAGELLLRRRKLDQGASMGYKDVKIAPLIERKDSGRRSNLERFSHYVARQLGFEDPNEYPQLCKLANGYLLKTKGYDENVDEYLENEAERDSLYVHLLEEFDRCILTYFSFNWTQSSNLISQALSDESDQKVPKLKDFVMAATRKQRFERVTKDLKVKRVISTLVEEMRVIGSGSSEPHCTEVMSPVAHNKRSPVLLLMGGGMGAGKSTVLKDIFLESFWSEAQADAVVIEADAFKETDVIYRALSSRGHHDDMLQTAELVHQSSTDAASSLLVTALNDGRDVIMDGTLSWEPFVEQMIEMARNVHKQKYRMGEGYKVSEEGTITEKYWEEEEEETKENGKQQNLKPYRIELVGVVCDAYLAVARGIRRALMVKRAVRVKPQLNSHKRFANAFPKYCELVDNARLYCTNAVGGPPRLIAWKDGNSKLLVDPEDIDCLKRVSSLNPDAESIYELYPDPSQLSKPGSVWNDVVLVPSRPKVQKELSDAIRRIEKAQPKN
As to B1, the binding entry with CaM of the CaM matrix [1] is on record as “binds”; with CaM of the CaM matrix [2], “no binding”.

The record behind these values is publication doi:10.1101/521658.
